No constants are given. Whether binding was seen depends on the method and setting. For some of these results: In cells and extracts the contact can be indirect. Some binding calls cover weakened binding; strength is not graded here. For some of these results: Where a sequence is shown, tags or fusion partners need not be part of it.

By UniProt entry, the sequences of proteins in these tests, tags left out. Where a name states a change or a piece, a line headed by the entry shows the natural chain unless it says otherwise.
UniProt P01100: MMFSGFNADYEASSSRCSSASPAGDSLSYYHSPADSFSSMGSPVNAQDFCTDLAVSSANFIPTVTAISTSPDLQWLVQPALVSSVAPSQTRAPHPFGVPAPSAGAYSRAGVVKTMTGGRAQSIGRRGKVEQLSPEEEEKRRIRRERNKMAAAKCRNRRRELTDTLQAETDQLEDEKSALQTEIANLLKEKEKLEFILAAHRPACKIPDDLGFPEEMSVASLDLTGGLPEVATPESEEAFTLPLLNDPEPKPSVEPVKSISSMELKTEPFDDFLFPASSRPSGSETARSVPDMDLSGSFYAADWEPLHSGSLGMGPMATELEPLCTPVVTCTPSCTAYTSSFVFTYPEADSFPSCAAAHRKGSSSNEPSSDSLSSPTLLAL

This is an account of results in paper PMC4741484.

Assay [1] deals with T1, KDM2A (endogenous) (human (endogenous in H719 and H460)) (UniProt Q9Y2K7).
T1 sequence: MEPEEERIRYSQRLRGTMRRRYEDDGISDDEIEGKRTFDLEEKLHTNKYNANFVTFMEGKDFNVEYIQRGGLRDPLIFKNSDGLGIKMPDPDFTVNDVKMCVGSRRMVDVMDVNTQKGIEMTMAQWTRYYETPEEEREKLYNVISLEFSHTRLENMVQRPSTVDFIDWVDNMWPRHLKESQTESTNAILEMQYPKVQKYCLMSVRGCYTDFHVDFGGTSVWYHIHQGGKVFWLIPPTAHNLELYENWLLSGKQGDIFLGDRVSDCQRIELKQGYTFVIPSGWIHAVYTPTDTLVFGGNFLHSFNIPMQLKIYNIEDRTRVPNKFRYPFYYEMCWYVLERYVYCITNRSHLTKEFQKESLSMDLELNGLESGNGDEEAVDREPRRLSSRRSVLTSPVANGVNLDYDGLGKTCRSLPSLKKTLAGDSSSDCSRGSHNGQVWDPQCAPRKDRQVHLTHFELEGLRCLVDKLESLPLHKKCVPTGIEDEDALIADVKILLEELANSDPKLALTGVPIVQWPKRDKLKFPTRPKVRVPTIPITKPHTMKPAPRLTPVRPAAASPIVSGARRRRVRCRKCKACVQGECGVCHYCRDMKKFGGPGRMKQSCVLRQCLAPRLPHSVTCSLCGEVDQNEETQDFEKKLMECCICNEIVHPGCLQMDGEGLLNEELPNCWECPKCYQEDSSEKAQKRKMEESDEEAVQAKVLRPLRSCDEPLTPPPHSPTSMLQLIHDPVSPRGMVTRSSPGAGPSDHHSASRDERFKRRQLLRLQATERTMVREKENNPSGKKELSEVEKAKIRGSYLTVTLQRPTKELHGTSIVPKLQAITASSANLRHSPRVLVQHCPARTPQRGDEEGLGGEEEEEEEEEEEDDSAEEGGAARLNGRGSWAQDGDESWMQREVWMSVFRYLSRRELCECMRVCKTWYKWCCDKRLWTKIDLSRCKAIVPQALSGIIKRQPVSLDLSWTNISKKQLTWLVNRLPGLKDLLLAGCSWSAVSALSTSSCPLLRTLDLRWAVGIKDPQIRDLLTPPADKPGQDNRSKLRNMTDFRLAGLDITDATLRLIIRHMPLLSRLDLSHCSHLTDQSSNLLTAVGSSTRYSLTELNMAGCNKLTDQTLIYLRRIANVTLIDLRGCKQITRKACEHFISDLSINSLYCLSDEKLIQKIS
Nature of the assay: co-IP; endogenous proteins, H719 cells without or with TPA (100 ng/mL, 2 hrs); lysis in 1% NP-40, 150 mM NaCl, 50 mM Tris, 0.05% SDS; IP with anti-c-Fos or with anti-KDM2A, Western blotting with anti-KDM2A or anti-c-Fos.

In a further assay the target is T2, Flag-tagged KDM2A (UniProt Q9Y2K7).
T2 sequence: T1 sequence
The assay is described as follows: co-IP; Myc-tagged c-Fos and Flag-tagged demethylase co-transfected into HEK293T cells; Co-IP with anti-Myc and anti-Flag antibodies, immunoblotting with anti-Myc.

Another assay addresses T3, GST-KDM2A (UniProt Q9Y2K7).
T3 sequence: T1 sequence
The assay is described as follows: pull-down; GST pull-down: purified His fusion proteins and GST-KDM2A (or GST) purified from bacteria, glutathione-Sepharose 4B beads; washed with TENT buffer (0.5% Nonidet P-40, 20 mM Tris pH 7.4, 0.1 mM EDTA, 300 mM NaCl); Western blotting with anti-GST antibody and Coomassie staining; both purified.

Turning to “c-Fos (endogenous) (from UniProt P01100 1-380)”, the binding entry in assay [1] was “binds”.
On to “Myc-tagged c-Fos (from UniProt P01100 1-380)”, for which the binding result in the assay with Flag-tagged KDM2A is on record as “binds”.
Take “His-tagged c-Fos, full length (FL) (from UniProt P01100 1-380)”: the binding entry with GST-KDM2A is given as “binds”.
The same measure, in the same setting: as for “His-c-Fos middle fragment (aa 137-200) (from UniProt P01100 137-200) (domain or fragment)”, the entry is “binds”.
